Protein sequences, listed by entry. Tags and fused reporters are not part of them. Lines headed by an entry give the natural chain unless they say otherwise; changes in a name come on top.
UniProt P52895: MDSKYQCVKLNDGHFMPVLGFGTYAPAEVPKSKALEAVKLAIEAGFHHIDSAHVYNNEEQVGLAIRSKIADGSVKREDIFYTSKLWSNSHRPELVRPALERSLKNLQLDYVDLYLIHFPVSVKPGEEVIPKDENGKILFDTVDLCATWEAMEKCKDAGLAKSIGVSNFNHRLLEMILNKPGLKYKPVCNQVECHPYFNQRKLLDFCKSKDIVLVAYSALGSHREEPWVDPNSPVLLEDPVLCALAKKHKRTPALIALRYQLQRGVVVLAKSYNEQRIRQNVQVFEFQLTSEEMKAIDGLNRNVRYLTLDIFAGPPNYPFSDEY
UniProt P46937: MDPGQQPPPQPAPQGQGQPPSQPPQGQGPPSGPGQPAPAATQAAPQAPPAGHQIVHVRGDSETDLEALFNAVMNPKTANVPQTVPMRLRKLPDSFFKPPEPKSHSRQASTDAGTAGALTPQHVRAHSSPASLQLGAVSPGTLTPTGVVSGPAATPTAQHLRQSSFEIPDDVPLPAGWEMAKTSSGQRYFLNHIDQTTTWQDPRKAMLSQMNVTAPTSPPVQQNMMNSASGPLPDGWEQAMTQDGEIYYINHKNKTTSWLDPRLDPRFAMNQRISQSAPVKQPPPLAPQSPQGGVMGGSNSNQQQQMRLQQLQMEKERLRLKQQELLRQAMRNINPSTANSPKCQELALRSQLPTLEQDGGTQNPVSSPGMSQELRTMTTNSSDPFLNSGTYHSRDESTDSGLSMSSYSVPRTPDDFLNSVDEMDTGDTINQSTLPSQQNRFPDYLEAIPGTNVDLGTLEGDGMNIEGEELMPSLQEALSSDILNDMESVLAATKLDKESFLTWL

According to paper PMC10616111:

Molecular target: pep-AKR1C2 (163-aa microprotein encoded by lncAKR1C2), Flag-labelled (human) (UniProt P52895)
Experiment: co-IP; anti-Flag immunoprecipitation from cell lysate 48 h or 72 h after treatment; lysis buffer 150 mM KCl, 25 mM Tris-HCl pH 7.4, 5 mM EDTA, 0.5% Triton X-100, 5 mM DTT; antibody overnight at 4 °C, beads 2-4 h at RT, five washes; western blot

- binding: binds
Substance: YAP (Yes-associated protein) (from UniProt P46937 1-504)

These are yes or no findings as the source states them, for the method shown. In cells and extracts the contact can be indirect. Binding can be weak; no strength is given.
